Measurements reported in US11834451B2 (priority 2021, dated 2023).
Some results come without the dose or concentration used.

Test system: EV-D68
Assay type: cell-based, enterovirus D68 (EV-D68)

| Compound | SI50, Anti-EV-D68 US/KY/14-18953 | SI50, EV-D68 US/IL/14-18952 (Clade B2) | SI50, EV-D68 US/IL/14-18956 (Clade B2) | SI50, EV-D68 US/KY/14-18953 (Clade D) | SI50, EV-D68 US/MO/14-18947 (Clade B1) | SI50, EV-D68 US/MO/14-18949 (Clade B1) |
| --- | --- | --- | --- | --- | --- | --- |
| Cc1cc(C(=O)NCCN(C)C)c2c(C)nn(C(C)(C)C)c2n1 [Compound 19, 1-tert-butyl-N-[2-(dimethylamino)ethyl]-3,6-dimethyl-1H-pyrazolo[3,4-b]pyridine-4-carboxamide] | EC50 = 1.0 ± 0.1 CC50 = 116.6 ± 16.1 SI50 = 116.6 | SI50 = 166.6 | SI50 = 291.5 | SI50 = 116.6 | SI50 = 291.5 | SI50 = 166.6 |
| CCCn1ncc2c(C(=O)NCCN(C)C)cc(C3CC3)nc21 [Compound 20, 6-cyclopropyl-N-[2-(dimethylamino)ethyl]-1-propyl-1H-pyrazolo[3,4-b]pyridine-4-carboxamide] | EC50 = 1.2 ± 0.2 CC50 = 57.7 ± 10.1 SI50 = 48.1 | – | – | – | – | – |
| CCC(C)n1ncc2c(C(=O)NCCN(C)C)cc(C3CC3)nc21 (stereo not drawn) [Compound 21, 1-(butan-2-yl)-6-cyclopropyl-N-[2-(dimethylamino)ethyl]-1H-pyrazolo[3,4-b]pyridine-4-carboxamide] | EC50 = 0.2 ± 0.1 CC50 = 40.7 ± 2.8 SI50 = 203.5 | – | – | – | – | – |
| CC(C1CC1)n1ncc2c(C(=O)NCCN(C)C)cc(C3CC3)nc21 (stereo not drawn) [Compound 22, 6-cyclopropyl-1-(1-cyclopropylethyl)-N-[2-(dimethylamino)ethyl]-1H-pyrazolo[3,4-b]pyridine-4-carboxamide] | EC50 = 0.7 ± 0.2 CC50 = 28.4 ± 2.3 SI50 = 40.6 | – | – | – | – | – |
